Only a part is listed here, and it is no random draw. At the low end of the ranking the order means little.
Key:
Assay in all cases: DAPPL (digital affinity profiling via proximity ligation, sequencing)
Details in all cases: 10 mM Tris-HCl pH 7.5, 50 mM NaCl, 1 mM DTT, 4% glycerol, room temperature, 30 min; GST-TFs on glutathione beads, 16-mer random dsDNA library, 0.1% …; high values mean tight binding; double strand, one strand shown; scale: fold enrichment (6-mer frequency, TF over GST control)
SPIC = molecular target: T1, SPIC (UniProt Q8N5J4)
T1 sequence: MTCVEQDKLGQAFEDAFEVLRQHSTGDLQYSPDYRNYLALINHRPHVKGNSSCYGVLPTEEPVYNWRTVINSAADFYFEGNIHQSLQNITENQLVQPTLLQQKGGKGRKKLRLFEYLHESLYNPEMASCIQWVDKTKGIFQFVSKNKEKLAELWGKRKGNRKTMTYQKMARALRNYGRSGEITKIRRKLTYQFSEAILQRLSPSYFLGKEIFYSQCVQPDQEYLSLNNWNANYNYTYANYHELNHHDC

ETS2 = molecular target: T2, ETS2 (UniProt P15036)
T2 sequence: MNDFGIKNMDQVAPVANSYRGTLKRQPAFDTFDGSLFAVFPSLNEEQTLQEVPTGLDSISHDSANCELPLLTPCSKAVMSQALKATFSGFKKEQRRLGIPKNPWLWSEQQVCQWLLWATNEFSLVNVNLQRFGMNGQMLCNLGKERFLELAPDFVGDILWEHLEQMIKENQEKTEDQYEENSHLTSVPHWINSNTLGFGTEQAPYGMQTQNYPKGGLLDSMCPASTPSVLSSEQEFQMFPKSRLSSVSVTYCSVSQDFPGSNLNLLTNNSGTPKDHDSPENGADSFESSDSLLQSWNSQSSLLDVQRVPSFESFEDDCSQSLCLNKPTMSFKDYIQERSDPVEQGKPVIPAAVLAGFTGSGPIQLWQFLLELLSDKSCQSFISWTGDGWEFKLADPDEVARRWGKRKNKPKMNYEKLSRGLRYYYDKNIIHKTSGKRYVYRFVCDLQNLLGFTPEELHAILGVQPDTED

ETV3 = molecular target: T3, ETV3 (UniProt P41162-2)
T3 sequence: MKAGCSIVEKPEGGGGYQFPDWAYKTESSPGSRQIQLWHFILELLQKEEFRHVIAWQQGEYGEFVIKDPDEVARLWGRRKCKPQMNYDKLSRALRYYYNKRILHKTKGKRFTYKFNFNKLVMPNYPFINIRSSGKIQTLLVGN

ELK3 = molecular target: T4, ELK3 (UniProt P41970)
T4 sequence: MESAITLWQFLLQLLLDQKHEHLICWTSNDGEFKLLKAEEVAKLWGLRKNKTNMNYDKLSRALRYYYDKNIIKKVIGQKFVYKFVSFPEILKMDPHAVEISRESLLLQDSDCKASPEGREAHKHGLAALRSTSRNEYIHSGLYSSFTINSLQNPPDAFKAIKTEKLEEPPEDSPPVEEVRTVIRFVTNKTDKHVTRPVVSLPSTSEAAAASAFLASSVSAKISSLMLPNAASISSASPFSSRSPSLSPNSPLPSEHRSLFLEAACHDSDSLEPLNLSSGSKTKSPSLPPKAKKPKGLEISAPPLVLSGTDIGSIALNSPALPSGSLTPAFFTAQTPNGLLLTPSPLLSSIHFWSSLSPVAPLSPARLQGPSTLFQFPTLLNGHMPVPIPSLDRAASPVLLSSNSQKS

| Sequence | binding signal (SPIC) | binding signal (ETS2) | binding signal (ETV3) | binding signal (ELK3) |
| --- | --- | --- | --- | --- |
| GCACAA | 1.09 | 1.12 | – | – |
| CCGGCT | 1.46 | 1.71 | – | – |
| GCCCTC | 1.26 | 1.24 | – | – |
| CAAACG | 0.988 | 0.997 | – | – |
| ATTAAC | 1.3 | 1.27 | – | – |
| TCTCAG | 1.16 | 1.37 | – | – |
| TATAGA | 1.04 | 1.04 | – | – |
| GTGTTC | 1.36 | 1.17 | – | – |
| AGCGCC | 0.971 | 1.06 | – | – |
| CATCAC | 1.26 | 1.12 | – | – |
| ACCGCC | 1.16 | 1.24 | – | – |
| ACGATT | 1.39 | 1.26 | – | – |
| AAACAA | 1.33 | 1.32 | – | – |
| CAGGAA | 1.65 | 1.75 | – | – |
| TCGTCC | 0.979 | 0.981 | – | – |
| ACTGTT | 0.964 | 1.13 | – | – |
| TAACGT | 0.928 | 0.993 | – | – |
| CGCTTA | 1.22 | 1.25 | – | – |
| CGTAAC | 1.27 | 1.15 | – | – |
| CGCGGC | 0.855 | 0.951 | – | – |

| Sequence | binding signal (SPIC) | binding signal (ETS2) | binding signal (ETV3) | binding signal (ELK3) |
| --- | --- | --- | --- | --- |
| TGTGCG | 0.938 | 1.05 | – | – |
| CTTTCG | 0.966 | 1.32 | – | – |
| TCTACC | 1.53 | 1.6 | – | – |
| ATATTT | 1.45 | 1.58 | – | – |
| AACTGA | 1.37 | 1.16 | – | – |
| CAACTA | 1.22 | 1.3 | – | – |
| CCTTGC | 1.45 | 1.22 | – | – |
| ACAATT | 1.17 | 1.29 | – | – |
| TCGTTT | 1.15 | 1.28 | – | – |
| ATCGCA | 0.98 | 1.02 | – | – |
| GTTTGC | 1.2 | 1.08 | – | – |
| GCAATT | 0.935 | 1.09 | – | – |
| GTAATA | 1.27 | 1.11 | – | – |
| CATGGG | 1.05 | 0.973 | 0.937 | – |
| GACTGC | 0.98 | 0.987 | 0.997 | 0.913 |
| GGTGGT | 0.958 | 0.99 | 0.938 | – |
| AAGCCC | 0.961 | 0.974 | 1.1 | 0.962 |
| CTGGCT | 1.13 | 1.19 | – | – |
| GCAAAC | 0.887 | 0.993 | 1.04 | – |

Ten entries from above, tab-delimited:
Sequence	binding signal (SPIC)	binding signal (ETS2)	binding signal (ETV3)	binding signal (ELK3)
CTTTCG	0.966	1.32	–	–
TCTACC	1.53	1.6	–	–
CAACTA	1.22	1.3	–	–
CCTTGC	1.45	1.22	–	–
TCGTTT	1.15	1.28	–	–
GTTTGC	1.2	1.08	–	–
GACTGC	0.98	0.987	0.997	0.913
GGTGGT	0.958	0.99	0.938	–
AAGCCC	0.961	0.974	1.1	0.962
CTGGCT	1.13	1.19	–	–

Source: article PMC7862700
